Test results: PMC4720893
No constants are given. Whether binding was seen depends on the method and setting. In cells and extracts the contact can be indirect. Some results given as binding are weak or reduced against the parent protein; the word gives no strength.

The chains behind the UniProt entries cited, without tags or fusion partners.
UniProt P03496: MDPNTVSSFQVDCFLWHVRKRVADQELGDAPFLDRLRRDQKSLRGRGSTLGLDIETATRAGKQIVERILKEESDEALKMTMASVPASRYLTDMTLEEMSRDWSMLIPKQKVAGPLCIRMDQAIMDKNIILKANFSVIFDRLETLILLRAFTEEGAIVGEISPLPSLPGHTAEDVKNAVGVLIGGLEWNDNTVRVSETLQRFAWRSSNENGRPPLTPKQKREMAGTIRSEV
UniProt P03466: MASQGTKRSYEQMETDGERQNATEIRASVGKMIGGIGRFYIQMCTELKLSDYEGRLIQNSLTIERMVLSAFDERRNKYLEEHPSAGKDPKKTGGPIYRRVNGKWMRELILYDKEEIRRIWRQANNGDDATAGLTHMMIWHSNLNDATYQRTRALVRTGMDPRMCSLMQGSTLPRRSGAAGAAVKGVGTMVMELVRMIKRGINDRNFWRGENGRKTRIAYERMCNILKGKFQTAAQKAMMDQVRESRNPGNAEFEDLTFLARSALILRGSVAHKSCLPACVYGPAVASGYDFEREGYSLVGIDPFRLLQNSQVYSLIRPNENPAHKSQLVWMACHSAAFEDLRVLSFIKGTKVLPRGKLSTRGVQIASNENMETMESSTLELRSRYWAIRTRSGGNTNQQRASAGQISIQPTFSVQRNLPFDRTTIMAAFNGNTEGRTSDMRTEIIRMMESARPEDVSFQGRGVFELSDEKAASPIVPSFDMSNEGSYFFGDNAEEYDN

Key:
Test in all cases: co-IP
[1] = biological target: T1, API5 (apoptosis inhibitor protein 5), endogenous in A549 cells (human (endogenous in A549)) (UniProt Q9BZZ5)
T1 sequence: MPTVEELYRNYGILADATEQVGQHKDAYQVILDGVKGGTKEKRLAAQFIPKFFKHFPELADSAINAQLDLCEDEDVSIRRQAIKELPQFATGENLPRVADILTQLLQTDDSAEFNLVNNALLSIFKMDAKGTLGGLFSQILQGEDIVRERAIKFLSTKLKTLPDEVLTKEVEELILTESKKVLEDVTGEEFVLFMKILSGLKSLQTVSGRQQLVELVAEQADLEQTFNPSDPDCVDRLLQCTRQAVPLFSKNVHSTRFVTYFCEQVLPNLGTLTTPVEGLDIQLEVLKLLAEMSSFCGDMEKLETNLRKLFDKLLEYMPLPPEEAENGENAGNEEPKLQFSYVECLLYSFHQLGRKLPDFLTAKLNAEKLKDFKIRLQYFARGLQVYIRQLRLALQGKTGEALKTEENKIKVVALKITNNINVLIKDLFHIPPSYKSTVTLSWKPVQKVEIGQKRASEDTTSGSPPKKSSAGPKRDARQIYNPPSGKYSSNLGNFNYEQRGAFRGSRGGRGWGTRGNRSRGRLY

[2] = biological target: NS1 of influenza A virus A/Puerto Rico/8/34 (PR8), in infected A549 cells (influenza A virus A/Puerto Rico/8/34 (H1N1; PR8)) (UniProt P03496)
[3] = biological target: nucleoprotein (NP) of influenza A virus A/Puerto Rico/8/34 (H1N1; PR8), in infected A549 cells (influenza A virus A/Puerto Rico/8/34 (H1N1; PR8)) (UniProt P03466)

Molecule | binding [1] | binding [2] | binding [3]
nucleoprotein (NP) of influenza A virus A/Puerto Rico/8/34 (H1N1; PR8), in infected A549 cells (from UniProt P03466 1-498) | binds |  | 
API5 (apoptosis inhibitor protein 5), endogenous in A549 cells (protein, UniProt Q9BZZ5 1-524) MPTVEELYRNYGILADATEQVGQHKDAYQVILDGVKGGTKEKRLAAQFIPKFFKHFPELADSAINAQLDLCEDEDVSIRRQAIKELPQFATGENLPRVADILTQLLQTDDSAEFNLVNNALLSIFKMDAKGTLGGLFSQILQGEDIVRERAIKFLSTKLKTLPDEVLTKEVEELILTESKKVLEDVTGEEFVLFMKILSGLKSLQTVSGRQQLVELVAEQADLEQTFNPSDPDCVDRLLQCTRQAVPLFSKNVHSTRFVTYFCEQVLPNLGTLTTPVEGLDIQLEVLKLLAEMSSFCGDMEKLETNLRKLFDKLLEYMPLPPEEAENGENAGNEEPKLQFSYVECLLYSFHQLGRKLPDFLTAKLNAEKLKDFKIRLQYFARGLQVYIRQLRLALQGKTGEALKTEENKIKVVALKITNNINVLIKDLFHIPPSYKSTVTLSWKPVQKVEIGQKRASEDTTSGSPPKKSSAGPKRDARQIYNPPSGKYSSNLGNFNYEQRGAFRGSRGGRGWGTRGNRSRGRLY |  | no binding | binds
